Measurements: patent publication US20150232546A1 (THROMBOGENICS, published 2015)
Numbering of substitutions follows the chain as printed. No constants are given. Whether binding was seen depends on the method and setting. Some binding calls cover weakened binding; strength is not graded here.

Chains of the proteins cited; added tags and fusions are not shown. Residues count along the entry.
UniProt Q9NRA1, residues 23-345: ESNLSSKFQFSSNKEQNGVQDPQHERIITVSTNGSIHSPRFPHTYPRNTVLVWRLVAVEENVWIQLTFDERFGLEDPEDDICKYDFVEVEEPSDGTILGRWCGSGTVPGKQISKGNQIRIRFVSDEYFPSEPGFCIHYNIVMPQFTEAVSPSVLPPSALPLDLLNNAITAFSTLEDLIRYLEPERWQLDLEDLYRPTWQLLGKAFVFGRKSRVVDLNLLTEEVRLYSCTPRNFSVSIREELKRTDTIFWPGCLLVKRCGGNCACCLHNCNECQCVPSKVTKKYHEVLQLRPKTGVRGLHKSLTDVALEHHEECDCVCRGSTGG

How the values were obtained:
[1] = target: full-length human PDGF-C (Example 6) (human) (UniProt Q9NRA1); assay: ELISA
[2] = target: T1, human PDGF-C peptide no. 9 (human); assay: peptide ELISA
T1 peptide: Biotin-FPHTYPRNTVLVWRL

[3] = target: T2, human PDGF-C peptide no. 10 (human); assay: peptide ELISA
T2 sequence (peptide, N-terminally biotinylated): PRNTVLVWRLVAVEE

[4] = target: T3, human PDGF-C peptide no. 11 (human); assay: peptide ELISA
T3 sequence (peptide, N-terminally biotinylated): LVWRLVAVEENVWIQ

[5] = target: T4, human PDGF-C peptide no. 12 (human); assay: peptide ELISA
T4 sequence (peptide, N-terminally biotinylated): VAVEENVWIQLTFDE

[6] = target: T5, human PDGF-C peptide no. 14 (human); assay: peptide ELISA
T5 sequence (peptide, N-terminally biotinylated): LTFDERFGLEDPEDD

[7] = target: T6, human PDGF-C peptide no. 18 (human); assay: peptide ELISA
T6 sequence (peptide, N-terminally biotinylated): FVEVEEPSDGTILGR

[8] = target: T7, human PDGF-C peptide no. 19 (human); assay: peptide ELISA
T7 sequence (peptide, N-terminally biotinylated): EPSDGTILGRWCGSG

[9] = target: T8, human PDGF-C peptide no. 2 (human); assay: peptide ELISA
T8 sequence (peptide, N-terminally biotinylated): SKFQFSSNKEQNGVQ

[10] = target: T9, human PDGF-C peptide no. 20 (human); assay: peptide ELISA
T9 sequence (peptide, N-terminally biotinylated): TILGRWCGSGTVPGK

[11] = target: T10, human PDGF-C peptide no. 22 (human); assay: peptide ELISA
T10 sequence (peptide, N-terminally biotinylated): TVPGKQISKGNQIRI

[12] = target: T11, human PDGF-C peptide no. 23 (human); assay: peptide ELISA
T11 sequence (peptide, N-terminally biotinylated): QISKGNQIRIRFVSD

[13] = target: T12, human PDGF-C peptide no. 24 (human); assay: peptide ELISA
T12 sequence (peptide, N-terminally biotinylated): NQIRIRFVSDEYFPS

[14] = target: T13, human PDGF-C peptide no. 25 (human); assay: peptide ELISA
T13 sequence (peptide, N-terminally biotinylated): RFVSDEYFPSEPGFC

[15] = target: T14, human PDGF-C peptide no. 26 (human); assay: peptide ELISA
T14 sequence (peptide, N-terminally biotinylated): EYFPSEPGFCIHYNI

[16] = target: T15, human PDGF-C peptide no. 28 (human); assay: peptide ELISA
T15 sequence (peptide, N-terminally biotinylated): IHYNIVMPQFTEAVS

[17] = target: T16, human PDGF-C peptide no. 29 (human); assay: peptide ELISA
T16 sequence (peptide, N-terminally biotinylated): VMPQFTEAVSPSVLP

[18] = target: T17, human PDGF-C peptide no. 3 (human); assay: peptide ELISA
T17 sequence (peptide, N-terminally biotinylated): SSNKEQNGVQDPQHE

[19] = target: T18, human PDGF-C peptide no. 30 (human); assay: peptide ELISA
T18 sequence (peptide, N-terminally biotinylated): TEAVSPSVLPPSALP

[20] = target: T19, human PDGF-C peptide no. 31 (human); assay: peptide ELISA
T19 sequence (peptide, N-terminally biotinylated): PSVLPPSALPLDLLN

[21] = target: T20, human PDGF-C peptide no. 33 (human); assay: peptide ELISA
T20 sequence (peptide, N-terminally biotinylated): LDLLNNAITAFSTLE

[22] = target: T21, human PDGF-C peptide no. 34 (human); assay: peptide ELISA
T21 sequence (peptide, N-terminally biotinylated): NAITAFSTLEDLIRY

[23] = target: T22, human PDGF-C peptide no. 35 (human); assay: peptide ELISA
T22 sequence (peptide, N-terminally biotinylated): FSTLEDLIRYLEPER

[24] = target: T23, human PDGF-C peptide no. 36 (human); assay: peptide ELISA
T23 sequence (peptide, N-terminally biotinylated): DLIRYLEPERWQLDL

[25] = target: T24, human PDGF-C peptide no. 37 (human); assay: peptide ELISA
T24 sequence (peptide, N-terminally biotinylated): LEPERWQLDLEDLYR

[26] = target: T25, human PDGF-C peptide no. 38 (human); assay: peptide ELISA
T25 sequence (peptide, N-terminally biotinylated): WQLDLEDLYRPTWQL

[27] = target: T26, human PDGF-C peptide no. 39 (human); assay: peptide ELISA
T26 sequence (peptide, N-terminally biotinylated): EDLYRPTWQLLGKAF

[28] = target: T27, human PDGF-C peptide no. 4 (human); assay: peptide ELISA
T27 sequence (peptide, N-terminally biotinylated): QNGVQDPQHERIITV

[29] = target: T28, human PDGF-C peptide no. 40 (human); assay: peptide ELISA
T28 sequence (peptide, N-terminally biotinylated): PTWQLLGKAFVFGRK

[30] = target: T29, human PDGF-C peptide no. 42 (human); assay: peptide ELISA
T29 sequence (peptide, N-terminally biotinylated): VFGRKSRVVDLNLLT

[31] = target: T30, human PDGF-C peptide no. 45 (human); assay: peptide ELISA
T30 sequence (peptide, N-terminally biotinylated): EEVRLYSCTPRNFSV

[32] = target: T31, human PDGF-C peptide no. 46 (human); assay: peptide ELISA
T31 sequence (peptide, N-terminally biotinylated): YSCTPRNFSVSIREE

[33] = target: T32, human PDGF-C peptide no. 47 (human); assay: peptide ELISA
T32 sequence (peptide, N-terminally biotinylated): RNFSVSIREELKRTD

[34] = target: T33, human PDGF-C peptide no. 48 (human); assay: peptide ELISA
T33 sequence (peptide, N-terminally biotinylated): SIREELKRTDTIFWP

[35] = target: T34, human PDGF-C peptide no. 49 (human); assay: peptide ELISA
T34 sequence (peptide, N-terminally biotinylated): LKRTDTIFWPGCLLV

[36] = target: T35, human PDGF-C peptide no. 5 (human); assay: peptide ELISA
T35 sequence (peptide, N-terminally biotinylated): DPQHERIITVSTNGS

[37] = target: T36, human PDGF-C peptide no. 50 (human); assay: peptide ELISA
T36 sequence (peptide, N-terminally biotinylated): TIFWPGCLLVKRCGG

[38] = target: T37, human PDGF-C peptide no. 51 (human); assay: peptide ELISA
T37 sequence (peptide, N-terminally biotinylated): GCLLVKRCGGNCACC

[39] = target: T38, human PDGF-C peptide no. 52 (human); assay: peptide ELISA
T38 sequence (peptide, N-terminally biotinylated): KRCGGNCACCLHNCN

[40] = target: T39, human PDGF-C peptide no. 54 (human); assay: peptide ELISA
T39 sequence (peptide, N-terminally biotinylated): LHNCNECQCVPSKVT

[41] = target: T40, human PDGF-C peptide no. 55 (human); assay: peptide ELISA
T40 sequence (peptide, N-terminally biotinylated): ECQCVPSKVTKKYHE

[42] = target: T41, human PDGF-C peptide no. 57 (human); assay: peptide ELISA
T41 sequence (peptide, N-terminally biotinylated): KKYHEVLQLRPKTGV

[43] = target: T42, human PDGF-C peptide no. 59 (human); assay: peptide ELISA
T42 sequence (peptide, N-terminally biotinylated): PKTGVRGLHKSLTDV

[44] = target: T43, human PDGF-C peptide no. 6 (human); assay: peptide ELISA
T43 sequence (peptide, N-terminally biotinylated): RIITVSTNGSIHSPR

[45] = target: T44, human PDGF-C peptide no. 60 (human); assay: peptide ELISA
T44 sequence (peptide, N-terminally biotinylated): RGLHKSLTDVALEHH

[46] = target: T45, human PDGF-C peptide no. 62 (human); assay: peptide ELISA
T45 sequence (peptide, N-terminally biotinylated): ALEHHEECDCVCRGS

[47] = target: T46, human PDGF-C peptide no. 63 (human); assay: peptide ELISA
T46 sequence (peptide, N-terminally biotinylated): EECDCVCRGSTGG

[48] = target: T47, human PDGF-C peptide no. 7 (human); assay: peptide ELISA
T47 sequence (peptide, N-terminally biotinylated): STNGSIHSPRFPHTY

B1: anti-PDGF-C antibody 2D3 (antibody, IgG1, V domains shown)
VH: EVQLVESGGDLVKPGGSLKLSCAASGFTFSNYGMSWVRQTPDKRLEWVATIGSGGSYTYYPDSVKGRFTISRDSAKNTLYLQMSSLKSEDTAMYYCARQAPLWDYSDYWGQGTTLTVSS
VL: DVLMTQTPLSLPVSLGDQASISCRSNQTIVHSNGDTYLEWYLQKPGQSPNLLIYKVSNRFSGVPDRFSGSGSGTDFTLKISRVEAEDLGVYYCFQGSHVPPTFGGGTKLEIK
notes: Mouse monoclonal from hybridoma, IgG1, kappa; also called mAb 2D3; hybridoma LMBP 9483CB
binding [1]: binds
binding [2]: no binding (tested: 1 µg/mL)
binding [3]: no binding (tested: 1 µg/mL)
binding [4]: no binding (tested: 1 µg/mL)
binding [5]: no binding (tested: 1 µg/mL)
binding [6]: no binding (tested: 1 µg/mL)
binding [7]: no binding (tested: 1 µg/mL)
binding [8]: no binding (tested: 1 µg/mL)
binding [9]: no binding (tested: 1 µg/mL)
binding [10]: no binding (tested: 1 µg/mL)
binding [11]: no binding (tested: 1 µg/mL)
binding [12]: no binding (tested: 1 µg/mL)
binding [13]: no binding (tested: 1 µg/mL)
binding [14]: no binding (tested: 1 µg/mL)
binding [15]: no binding (tested: 1 µg/mL)
binding [16]: no binding (tested: 1 µg/mL)
binding [17]: no binding (tested: 1 µg/mL)
binding [18]: no binding (tested: 1 µg/mL)
binding [19]: no binding (tested: 1 µg/mL)
binding [20]: no binding (tested: 1 µg/mL)
binding [21]: no binding (tested: 1 µg/mL)
binding [22]: no binding (tested: 1 µg/mL)
binding [23]: no binding (tested: 1 µg/mL)
binding [24]: no binding (tested: 1 µg/mL)
binding [25]: no binding (tested: 1 µg/mL)
binding [26]: no binding (tested: 1 µg/mL)
binding [27]: no binding (tested: 1 µg/mL)
binding [28]: no binding (tested: 1 µg/mL)
binding [29]: no binding (tested: 1 µg/mL)
binding [30]: no binding (tested: 1 µg/mL)
binding [31]: no binding (tested: 1 µg/mL)
binding [32]: no binding (tested: 1 µg/mL)
binding [33]: no binding (tested: 1 µg/mL)
binding [34]: no binding (tested: 1 µg/mL)
binding [35]: no binding (tested: 1 µg/mL)
binding [36]: no binding (tested: 1 µg/mL)
binding [37]: no binding (tested: 1 µg/mL)
binding [38]: no binding (tested: 1 µg/mL)
binding [39]: no binding (tested: 1 µg/mL)
binding [40]: no binding (tested: 1 µg/mL)
binding [41]: no binding (tested: 1 µg/mL)
binding [42]: no binding (tested: 1 µg/mL)
binding [43]: no binding (tested: 1 µg/mL)
binding [44]: no binding (tested: 1 µg/mL)
binding [45]: no binding (tested: 1 µg/mL)
binding [46]: no binding (tested: 1 µg/mL)
binding [47]: no binding (tested: 1 µg/mL)
binding [48]: no binding (tested: 1 µg/mL)

B2: anti-PDGF-C antibody 16B1 (antibody, IgG1, V domains shown)
VH: B1 VH
VL: B1 VL with T28S, N50K
notes: Mouse monoclonal from hybridoma, IgG1, kappa; VH same as 2D3, VL same as 5A2; also called mAb 16B1; hybridoma LMBP 9486CB
binding [1]: binds
binding [2]: no binding (tested: 1 µg/mL)
binding [3]: no binding (tested: 1 µg/mL)
binding [4]: no binding (tested: 1 µg/mL)
binding [5]: no binding (tested: 1 µg/mL)
binding [6]: no binding (tested: 1 µg/mL)
binding [7]: no binding (tested: 1 µg/mL)
binding [8]: no binding (tested: 1 µg/mL)
binding [9]: no binding (tested: 1 µg/mL)
binding [10]: no binding (tested: 1 µg/mL)
binding [11]: no binding (tested: 1 µg/mL)
binding [12]: no binding (tested: 1 µg/mL)
binding [13]: no binding (tested: 1 µg/mL)
binding [14]: no binding (tested: 1 µg/mL)
binding [15]: no binding (tested: 1 µg/mL)
binding [16]: no binding (tested: 1 µg/mL)
binding [17]: no binding (tested: 1 µg/mL)
binding [18]: no binding (tested: 1 µg/mL)
binding [19]: no binding (tested: 1 µg/mL)
binding [20]: no binding (tested: 1 µg/mL)
binding [21]: no binding (tested: 1 µg/mL)
binding [22]: no binding (tested: 1 µg/mL)
binding [23]: no binding (tested: 1 µg/mL)
binding [24]: no binding (tested: 1 µg/mL)
binding [25]: no binding (tested: 1 µg/mL)
binding [26]: no binding (tested: 1 µg/mL)
binding [27]: no binding (tested: 1 µg/mL)
binding [28]: no binding (tested: 1 µg/mL)
binding [29]: no binding (tested: 1 µg/mL)
binding [30]: no binding (tested: 1 µg/mL)
binding [31]: no binding (tested: 1 µg/mL)
binding [32]: no binding (tested: 1 µg/mL)
binding [33]: no binding (tested: 1 µg/mL)
binding [34]: no binding (tested: 1 µg/mL)
binding [35]: no binding (tested: 1 µg/mL)
binding [36]: no binding (tested: 1 µg/mL)
binding [37]: no binding (tested: 1 µg/mL)
binding [38]: no binding (tested: 1 µg/mL)
binding [39]: no binding (tested: 1 µg/mL)
binding [40]: no binding (tested: 1 µg/mL)
binding [41]: no binding (tested: 1 µg/mL)
binding [42]: no binding (tested: 1 µg/mL)
binding [43]: no binding (tested: 1 µg/mL)
binding [44]: no binding (tested: 1 µg/mL)
binding [45]: no binding (tested: 1 µg/mL)
binding [46]: no binding (tested: 1 µg/mL)
binding [47]: no binding (tested: 1 µg/mL)
binding [48]: no binding (tested: 1 µg/mL)
